Laboratory results reported in the supplement of paper PMC10849652.
The list shows a part of the results.

Chains of the proteins cited; added tags and fusions are not shown. Lines headed by an entry give the natural chain unless they say otherwise; changes in a name come on top.
UniProt Q8TCT9: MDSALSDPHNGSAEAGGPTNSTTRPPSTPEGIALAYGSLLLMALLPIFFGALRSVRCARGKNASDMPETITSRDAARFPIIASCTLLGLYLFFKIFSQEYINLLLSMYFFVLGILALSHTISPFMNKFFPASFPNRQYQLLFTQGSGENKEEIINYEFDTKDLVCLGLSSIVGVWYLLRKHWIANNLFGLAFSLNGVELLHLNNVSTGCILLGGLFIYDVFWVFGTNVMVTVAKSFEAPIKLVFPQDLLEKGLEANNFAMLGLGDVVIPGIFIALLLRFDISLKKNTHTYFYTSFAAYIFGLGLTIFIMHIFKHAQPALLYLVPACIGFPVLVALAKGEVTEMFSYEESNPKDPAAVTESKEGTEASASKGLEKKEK
UniProt Q0VDF9: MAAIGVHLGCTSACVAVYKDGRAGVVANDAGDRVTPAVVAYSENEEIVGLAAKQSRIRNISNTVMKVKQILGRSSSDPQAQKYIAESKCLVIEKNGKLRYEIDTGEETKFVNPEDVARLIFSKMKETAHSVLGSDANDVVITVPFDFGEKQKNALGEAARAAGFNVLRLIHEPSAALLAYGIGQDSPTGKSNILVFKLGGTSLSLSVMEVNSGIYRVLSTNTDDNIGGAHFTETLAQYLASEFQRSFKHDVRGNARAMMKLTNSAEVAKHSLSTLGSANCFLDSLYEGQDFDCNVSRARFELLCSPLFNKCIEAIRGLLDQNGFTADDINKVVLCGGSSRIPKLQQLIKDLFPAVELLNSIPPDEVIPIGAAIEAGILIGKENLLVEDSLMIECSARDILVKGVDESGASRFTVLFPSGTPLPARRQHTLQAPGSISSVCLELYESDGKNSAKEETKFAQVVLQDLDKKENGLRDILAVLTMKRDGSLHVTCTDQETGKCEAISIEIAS
UniProt P17483: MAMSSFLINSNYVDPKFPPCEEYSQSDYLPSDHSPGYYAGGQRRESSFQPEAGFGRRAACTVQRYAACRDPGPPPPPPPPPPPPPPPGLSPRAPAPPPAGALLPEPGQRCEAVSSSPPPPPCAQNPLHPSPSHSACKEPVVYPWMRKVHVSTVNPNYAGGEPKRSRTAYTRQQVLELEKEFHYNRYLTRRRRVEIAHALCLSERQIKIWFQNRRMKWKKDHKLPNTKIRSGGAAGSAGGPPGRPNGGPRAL
UniProt Q53GQ0: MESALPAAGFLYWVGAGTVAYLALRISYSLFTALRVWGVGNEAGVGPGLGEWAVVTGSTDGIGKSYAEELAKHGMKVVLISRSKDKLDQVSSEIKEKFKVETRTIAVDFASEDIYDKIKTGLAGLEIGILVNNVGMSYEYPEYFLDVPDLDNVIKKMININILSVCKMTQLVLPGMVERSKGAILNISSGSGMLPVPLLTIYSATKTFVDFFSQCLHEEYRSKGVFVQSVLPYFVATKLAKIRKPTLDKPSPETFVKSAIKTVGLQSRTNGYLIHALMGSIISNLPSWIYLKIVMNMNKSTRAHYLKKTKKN
UniProt Q15011: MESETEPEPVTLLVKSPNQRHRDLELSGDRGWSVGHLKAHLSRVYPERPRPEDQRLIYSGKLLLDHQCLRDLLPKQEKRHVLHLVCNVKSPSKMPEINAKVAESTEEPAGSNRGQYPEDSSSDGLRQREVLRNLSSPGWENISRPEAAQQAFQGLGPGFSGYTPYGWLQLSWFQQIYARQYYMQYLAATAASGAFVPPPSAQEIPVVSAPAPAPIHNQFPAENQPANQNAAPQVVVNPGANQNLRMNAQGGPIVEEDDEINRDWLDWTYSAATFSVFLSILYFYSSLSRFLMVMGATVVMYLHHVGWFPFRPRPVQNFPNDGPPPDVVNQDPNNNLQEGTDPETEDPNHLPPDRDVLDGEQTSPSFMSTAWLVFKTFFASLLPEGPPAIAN
UniProt Q00839, whole entry, looked up: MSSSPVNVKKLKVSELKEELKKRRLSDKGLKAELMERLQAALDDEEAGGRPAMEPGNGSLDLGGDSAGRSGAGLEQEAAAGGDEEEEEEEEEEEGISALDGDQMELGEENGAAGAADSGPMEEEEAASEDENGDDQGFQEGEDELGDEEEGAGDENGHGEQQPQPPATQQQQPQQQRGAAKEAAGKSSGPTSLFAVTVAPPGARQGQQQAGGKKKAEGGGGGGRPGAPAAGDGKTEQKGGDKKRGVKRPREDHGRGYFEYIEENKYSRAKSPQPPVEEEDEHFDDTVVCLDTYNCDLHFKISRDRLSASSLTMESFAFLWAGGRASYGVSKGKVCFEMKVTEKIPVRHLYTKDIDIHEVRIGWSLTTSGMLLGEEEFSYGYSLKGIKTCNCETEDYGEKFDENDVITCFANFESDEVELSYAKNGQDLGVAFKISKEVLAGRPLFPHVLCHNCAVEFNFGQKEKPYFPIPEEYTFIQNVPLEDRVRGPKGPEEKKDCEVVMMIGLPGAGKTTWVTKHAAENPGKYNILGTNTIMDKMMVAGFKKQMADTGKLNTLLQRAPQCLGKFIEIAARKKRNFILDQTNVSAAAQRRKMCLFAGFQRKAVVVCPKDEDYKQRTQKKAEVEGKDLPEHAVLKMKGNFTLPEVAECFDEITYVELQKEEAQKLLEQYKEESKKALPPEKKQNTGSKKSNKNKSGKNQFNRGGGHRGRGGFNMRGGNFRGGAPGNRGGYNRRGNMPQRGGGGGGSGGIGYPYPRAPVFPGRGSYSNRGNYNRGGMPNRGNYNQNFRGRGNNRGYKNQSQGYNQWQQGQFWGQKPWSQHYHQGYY
UniProt Q96ED9: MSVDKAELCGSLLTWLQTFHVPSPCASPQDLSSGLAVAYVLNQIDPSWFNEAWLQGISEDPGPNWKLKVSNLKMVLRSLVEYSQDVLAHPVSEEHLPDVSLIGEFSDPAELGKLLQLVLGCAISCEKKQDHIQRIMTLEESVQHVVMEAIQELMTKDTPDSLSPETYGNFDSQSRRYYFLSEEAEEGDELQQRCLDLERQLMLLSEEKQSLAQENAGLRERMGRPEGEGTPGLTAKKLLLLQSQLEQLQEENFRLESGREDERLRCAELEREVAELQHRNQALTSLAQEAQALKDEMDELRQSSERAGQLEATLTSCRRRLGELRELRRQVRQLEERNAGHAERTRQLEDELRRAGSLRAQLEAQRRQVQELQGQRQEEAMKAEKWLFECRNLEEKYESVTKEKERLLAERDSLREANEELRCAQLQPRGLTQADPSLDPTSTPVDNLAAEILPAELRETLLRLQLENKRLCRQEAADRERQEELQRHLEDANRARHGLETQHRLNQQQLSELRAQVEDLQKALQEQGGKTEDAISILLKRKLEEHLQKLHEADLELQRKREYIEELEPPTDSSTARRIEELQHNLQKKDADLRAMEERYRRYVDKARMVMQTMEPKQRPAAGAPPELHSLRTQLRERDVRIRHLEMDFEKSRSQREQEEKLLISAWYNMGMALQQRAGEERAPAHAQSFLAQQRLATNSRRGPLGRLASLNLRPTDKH
UniProt Q9BXL5: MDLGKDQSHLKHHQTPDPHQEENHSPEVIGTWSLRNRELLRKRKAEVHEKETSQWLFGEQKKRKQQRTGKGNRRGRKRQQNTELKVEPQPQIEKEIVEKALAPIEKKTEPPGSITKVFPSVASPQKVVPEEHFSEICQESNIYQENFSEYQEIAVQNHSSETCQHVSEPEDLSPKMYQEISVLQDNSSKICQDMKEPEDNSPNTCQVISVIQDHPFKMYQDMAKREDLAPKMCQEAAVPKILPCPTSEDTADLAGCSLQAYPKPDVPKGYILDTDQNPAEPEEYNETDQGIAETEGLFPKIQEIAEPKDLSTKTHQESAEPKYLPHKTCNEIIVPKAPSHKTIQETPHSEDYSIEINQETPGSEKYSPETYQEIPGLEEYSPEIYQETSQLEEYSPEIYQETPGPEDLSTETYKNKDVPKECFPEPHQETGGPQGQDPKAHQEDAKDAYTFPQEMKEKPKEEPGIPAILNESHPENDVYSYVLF
UniProt Q8IWL3: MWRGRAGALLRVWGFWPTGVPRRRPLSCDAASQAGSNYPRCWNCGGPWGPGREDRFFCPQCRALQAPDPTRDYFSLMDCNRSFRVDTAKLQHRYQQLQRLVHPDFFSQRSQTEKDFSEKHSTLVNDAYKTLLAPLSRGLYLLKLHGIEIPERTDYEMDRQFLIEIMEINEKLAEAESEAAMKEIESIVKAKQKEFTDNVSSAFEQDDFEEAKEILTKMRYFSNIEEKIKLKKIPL
UniProt O75506: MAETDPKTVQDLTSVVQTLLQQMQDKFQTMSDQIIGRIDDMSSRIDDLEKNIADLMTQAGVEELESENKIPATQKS
UniProt P50135: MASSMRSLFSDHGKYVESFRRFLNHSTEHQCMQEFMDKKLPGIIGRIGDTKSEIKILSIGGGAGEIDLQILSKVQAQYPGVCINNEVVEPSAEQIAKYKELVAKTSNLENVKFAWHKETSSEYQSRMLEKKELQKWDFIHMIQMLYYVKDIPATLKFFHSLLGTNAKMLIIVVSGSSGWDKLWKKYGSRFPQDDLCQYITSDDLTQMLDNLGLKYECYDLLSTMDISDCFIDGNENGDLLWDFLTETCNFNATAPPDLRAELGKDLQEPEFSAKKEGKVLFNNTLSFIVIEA
UniProt P56937: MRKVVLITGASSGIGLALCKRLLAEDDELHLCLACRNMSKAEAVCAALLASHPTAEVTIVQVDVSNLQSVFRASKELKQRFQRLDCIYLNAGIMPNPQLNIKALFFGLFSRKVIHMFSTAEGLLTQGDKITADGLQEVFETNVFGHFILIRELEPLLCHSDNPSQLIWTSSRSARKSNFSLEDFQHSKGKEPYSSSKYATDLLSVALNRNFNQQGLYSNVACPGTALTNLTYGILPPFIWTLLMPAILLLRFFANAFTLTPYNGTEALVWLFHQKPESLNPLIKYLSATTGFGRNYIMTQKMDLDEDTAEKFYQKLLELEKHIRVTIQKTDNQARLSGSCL

Experiments:
Experiment in all cases: log2 fold change, soluble protein after heating vs DMSO (PISA); higher = thermal stabilisation; K562 lysate, 10 uM; active = over 0.2 and 3.5 SD of the protein, either way, in both replicates (recomputed)
ibrutinib = compound: C=CC(=O)N1CCC[C@@H](n2nc(-c3ccc(Oc4ccccc4)cc3)c3c(N)ncnc32)C1 [ibrutinib]
Method in brief: (§1)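 Dounce homogenisation of K562 pellets in PBS pH 7.4 with 1 mM MgCl2 produced a crude extract, used at 1 mg/mL protein. Exposure to 10 μM compound lasted 30 min, and aliquots were then heated for 3 min across 48°C-58°C, pooled and brought to 0.5% NP-40 at 4°C. The supernatant after 21,000xg for 90 min was quantified by TMTpro 16plex LC-MS/MS with channel sums equalised. Duplicate values are given as log-two fold change in thermal stability relative to solvent controls.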

[1] = compound: CC1=C(C2=C(C=C1)C(=O)C3=CC=CC=C3N2CCCN)C
Method in brief: as §1

[2] = compound: CC1=C(C=C(C=C1)NC(=O)C2=CC(=CC=C2)C(C)(C)C#N)NC3=CC4=C(C=C3)N=CN(C4=O)C
Method in brief: as §1

vemurafenib = compound: CCCS(=O)(=O)Nc1ccc(F)c(C(=O)c2c[nH]c3ncc(-c4ccc(Cl)cc4)cc23)c1F [vemurafenib]
Method in brief: as §1

barasertib = compound: CCN(CCCOc1ccc2c(Nc3cc(CC(=O)Nc4cccc(F)c4)[nH]n3)ncnc2c1)CCOP(=O)(O)O [barasertib]
Method in brief: as §1

[3] = compound: CC[C@@H]1C(=O)N(C)c2cnc(Nc3ccc(C(=O)NC4CCN(C)CC4)cc3OC)nc2N1C1CCCC1
Method in brief: as §1

saracatinib = compound: CN1CCN(CCOc2cc(OC3CCOCC3)c3c(Nc4c(Cl)ccc5c4OCO5)ncnc3c2)CC1 [saracatinib]
Method in brief: as §1

sotrastaurin = compound: CN1CCN(c2nc(C3=C(c4c[nH]c5ccccc45)C(=O)NC3=O)c3ccccc3n2)CC1 [sotrastaurin]
Method in brief: as §1

[4] = compound: CC(=O)c1cnc2ccc(-c3cc(Cl)c(O)c(Cl)c3)nc2c1N[C@H]1CC[C@H](CN(C)C)CC1
Method in brief: as §1

ralimetinib = compound: CC(C)(C)Cn1c(N)nc2ccc(-c3[nH]c(C(C)(C)C)nc3-c3ccc(F)cc3)nc21 [ralimetinib]
Method in brief: as §1

[5] = compound: CC(C)(O)CC(=O)NCCn1ccc2ncnc(Nc3ccc(Oc4cccc(C(F)(F)F)c4)c(Cl)c3)c21
Method in brief: as §1

[6] = compound: CC(C)C1=C2N=C(C=C(N2N=C1)NCC3=CC=CC=C3)NCCCCCCN
Method in brief: as §1

[7] = compound: CC1=C(C(CC(=O)N1)C2=CC=C(C=C2)C(F)(F)F)C(=O)NC3=C(C=C4C(=C3)C=NN4)F
Method in brief: as §1

[8] = compound: CC1=C(C=C(C=C1)NC(=O)C2=CC(=CC=C2)N(C)C)NC(=O)C3=CC=C(C=C3)O
Method in brief: as §1

[9] = compound: CC1=CC=C(C=C1)SC2=C3C=C(SC3=CN=C2)C(=O)N
Method in brief: as §1

[10] = compound: CCCS(=O)(=O)Nc1ccc(F)c(C(=O)c2c[nH]c3ncc(Cl)cc23)c1F
Method in brief: as §1

volasertib = compound: CC[C@@H]1C(=O)N(C)c2cnc(Nc3ccc(C(=O)N[C@H]4CC[C@H](N5CCN(CC6CC6)CC5)CC4)cc3OC)nc2N1C(C)C [volasertib]
Method in brief: as §1

[11] = compound: CCn1c(C(=O)N(C2CC2)C2CC2)cc2c3c(ncn3C)c(Nc3cc(C)n(C)n3)nc21
Method in brief: as §1

[12] = compound: CCn1cc(-c2ccnc3[nH]c(-c4cccc(CN(C)C)c4)cc23)c(-c2ccc(NC(=O)N(C)C)cc2)n1
Method in brief: as §1

[13] = compound: CN1CCC(CNc2ccc3ncc(-c4cccc(OC(F)(F)F)c4)n3n2)CC1
Method in brief: as §1

| Target | log2 fold change (ibrutinib) | log2 fold change [1] | log2 fold change [2] | log2 fold change (vemurafenib) | log2 fold change (barasertib) | log2 fold change [3] | log2 fold change (saracatinib) | log2 fold change (sotrastaurin) | log2 fold change [4] | log2 fold change (ralimetinib) | log2 fold change [5] | log2 fold change [6] | log2 fold change [7] | log2 fold change [8] | log2 fold change [9] | log2 fold change [10] | log2 fold change (volasertib) | log2 fold change [11] | log2 fold change [12] | log2 fold change [13] |
| --- | --- | --- | --- | --- | --- | --- | --- | --- | --- | --- | --- | --- | --- | --- | --- | --- | --- | --- | --- | --- |
| HNRNPM (UniProt M0QZM1) | inactive: 0.003 | inactive: 0.121 | inactive: -0.068 | inactive: -0.027 | inactive: 0.229 | inactive: 0.171 | inactive: -0.066 | inactive: -0.054 | – | – | – | – | – | – | – | – | – | – | – | – |
| HPCAL1 (UniProt P37235) | inactive: 0.049 | inactive: 0.033 | inactive: 0.009 | inactive: 0.009 | inactive: -0.002 | inactive: 0.01 | inactive: 0.025 | inactive: -0.008 | inactive: 0.002 | inactive: 0.032 | inactive: -0.016 | inactive: -0.046 | inactive: 0.006 | inactive: -0.037 | inactive: -0.014 | inactive: 0.02 | inactive: 0.052 | inactive: 0.035 | inactive: -0.072 | inactive: 0.144 |
| HM13 isoform 2 (UniProt Q8TCT9) | inactive: 0.011 | inactive: 0.009 | inactive: 0.011 | inactive: -0.033 | inactive: 0.01 | inactive: 0.041 | inactive: 0.026 | inactive: 0.013 | inactive: 0.009 | inactive: 0.05 | inactive: -0.058 | inactive: -0.028 | inactive: -0.015 | inactive: -0.025 | inactive: -0.02 | inactive: -0.02 | inactive: 0.083 | inactive: -0.009 | inactive: -0.07 | inactive: 0.022 |
| HSPA14 (UniProt Q0VDF9) | inactive: 0.004 | inactive: -0.009 | inactive: -0.012 | inactive: 0.023 | inactive: 0.001 | inactive: -0.026 | inactive: 0.002 | inactive: 0.039 | inactive: -0.008 | inactive: 0.009 | inactive: -0.013 | inactive: -0.032 | inactive: -0.02 | inactive: 0.033 | inactive: 0.004 | inactive: 0.011 | inactive: -0.043 | inactive: 0.013 | inactive: 0.04 | inactive: -0.021 |
| HOXB4 (UniProt P17483) | inactive: 0.007 | inactive: 0.059 | inactive: 0.009 | inactive: 0.06 | inactive: 0.098 | inactive: 0.032 | inactive: 0.029 | inactive: -0.047 | inactive: -0.004 | inactive: -0.087 | inactive: 0.049 | – | inactive: -0.092 | inactive: 0.017 | inactive: 0.067 | inactive: 0.026 | inactive: -0.034 | inactive: 0.07 | inactive: -0.025 | inactive: 0.055 |
| HSD17B12 (UniProt Q53GQ0) | inactive: -0.016 | inactive: 0.024 | inactive: -0.036 | inactive: 0.073 | inactive: 0.047 | inactive: 0.003 | inactive: 0.105 | inactive: 0.071 | inactive: 0.004 | inactive: -0.026 | inactive: 0.048 | inactive: 0.069 | inactive: 0 | inactive: 0.049 | inactive: 0.003 | inactive: 0.005 | inactive: -0.096 | inactive: -0.024 | active: -0.304 | inactive: -0.107 |
| HERPUD1 (UniProt Q15011) | inactive: -0.097 | – | – | inactive: -0.053 | inactive: 0.071 | inactive: 0.14 | – | – | – | – | – | – | inactive: 0 | – | – | – | – | – | inactive: 0.065 | inactive: -0.001 |
| HNRNPU (UniProt Q00839) | inactive: 0 | inactive: 0.022 | inactive: -0.058 | inactive: -0.041 | inactive: 0.01 | inactive: -0.02 | inactive: -0.026 | inactive: 0.008 | inactive: -0.005 | inactive: 0.005 | inactive: 0.027 | inactive: 0.017 | inactive: -0.022 | inactive: 0.018 | inactive: 0.044 | inactive: 0.007 | inactive: -0.016 | inactive: 0.033 | inactive: 0.015 | inactive: -0.055 |
| HOOK2 (UniProt Q96ED9) | inactive: -0.094 | inactive: -0.106 | – | – | inactive: 0.227 | – | inactive: -0.019 | – | inactive: -0.041 | – | – | inactive: -0.026 | inactive: -0.006 | – | inactive: -0.102 | inactive: 0.043 | inactive: -0.014 | – | inactive: -0.028 | inactive: -0.232 |
| HEMGN (UniProt Q9BXL5) | inactive: 0.005 | inactive: -0.014 | inactive: -0.005 | inactive: -0.012 | inactive: -0.029 | inactive: 0.021 | inactive: -0.027 | inactive: -0.011 | inactive: -0.002 | inactive: -0.031 | inactive: 0.033 | inactive: 0.01 | inactive: 0.007 | inactive: -0.044 | inactive: 0.018 | inactive: 0.011 | inactive: 0.011 | inactive: -0.03 | inactive: 0.097 | inactive: -0.063 |
| HSCB (UniProt Q8IWL3) | inactive: 0.056 | inactive: -0.028 | inactive: -0.087 | inactive: 0.053 | inactive: 0.036 | inactive: -0.028 | inactive: -0.008 | inactive: -0.026 | inactive: 0.014 | inactive: 0.056 | inactive: -0.06 | inactive: 0.026 | – | inactive: 0.049 | inactive: -0.011 | inactive: 0.137 | inactive: 0.057 | inactive: 0.009 | inactive: -0.044 | inactive: -0.069 |
| HSBP1 (UniProt O75506) | inactive: -0.047 | inactive: -0.025 | – | inactive: -0.056 | inactive: 0.095 | inactive: -0.084 | inactive: -0.034 | – | – | inactive: 0.016 | inactive: 0.043 | inactive: -0.154 | – | inactive: -0.018 | – | – | – | inactive: 0.101 | inactive: 0.357 | inactive: -0.488 |
| HNMT (UniProt P50135) | inactive: 0.058 | inactive: -0.151 | – | – | inactive: 0.039 | inactive: -0.249 | inactive: 0.124 | – | inactive: 0.126 | – | – | inactive: 0.018 | – | – | inactive: -0.058 | inactive: -0.021 | inactive: -0.042 | – | inactive: 0.026 | inactive: 0.009 |
| HSD17B7 (UniProt P56937) | inactive: 0.091 | inactive: -0.169 | – | inactive: -0.161 | inactive: 0.064 | inactive: -0.071 | inactive: 0.292 | – | inactive: 0.016 | inactive: 0.028 | inactive: -0.073 | inactive: -0.115 | inactive: -0.181 | inactive: 0.033 | inactive: 0.015 | inactive: 0.002 | inactive: 0.025 | inactive: -0.091 | inactive: -0.06 | inactive: 0.022 |
